Patent publication US8343911B2, “Methods of inhibiting and treating bacterial biofilms by metal chelators” (University of Iowa Research Foundation, priority 2002, dated 2013)
At least one structure is not confirmed: it was looked up by name or label, or the drawing left a doubt.

System: P. aeruginosa with pMRP9-1
Experiment: Surface motility assay on agar plates
Format: cell-based
Conditions: FIG. 4d

CC(=O)N(O)CCCCCNC(=O)CCC(=O)N(O)CCCCCNC(=O)CCC(=O)N(O)CCCCCN [Deferoxamine, deferoxamine]
effect on surface motility (deferoxamine in agar plates, 3 days): stimulated surface motility in a dose-dependent manner
effect on surface motility with added iron (deferoxamine plus FeCl3 in agar plates): this response was blocked by adding iron
